From article PMC8081524
Results are given in words; binding and its absence hold for the method and conditions named. Binding can be weak; no strength is given. Tags and fused reporters may be left off the sequences shown.

Biological target: T1, GST-Cx34.1 (aa 256-299) (zebrafish (Danio rerio)) (UniProt B3DHR0)
T1 sequence: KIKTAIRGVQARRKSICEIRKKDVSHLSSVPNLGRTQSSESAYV
Test: pull-down; GST fusions on glutathione resin (10 µl bed) incubated with 15 µl 6xHIS-ZO1b-PDZ1 (7 mg/ml), room temperature, 15 min; washed with 50 mM NaPO4 pH 7.4, 300 mM NaCl; blot with anti-TEV cleavage site antibody; both purified

binding: binds
Substance: 6xHIS-TEV cleavage site-ZO1b (aa105-207) (zebrafish (Danio rerio)) (domain or fragment)
